In PMC12935919 (Frontiers in Pharmacology, 2026):
These are yes or no findings as the source states them, for the method shown. Some entries that bind do so weakly or less than the wild type. Where a sequence is shown, tags or fusion partners need not be part of it.

Target: T1, human recombinant Myostatin-Fc protein (human) (UniProt O14793)
T1 sequence: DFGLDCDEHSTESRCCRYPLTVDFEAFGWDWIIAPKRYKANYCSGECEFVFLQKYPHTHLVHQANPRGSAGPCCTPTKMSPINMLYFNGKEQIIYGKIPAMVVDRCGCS
Assay: SPR; Biacore T200; Myostatin-Fc immobilised on a CM5 chip at 2210.3 RU by EDC/NHS amine coupling; Myoki injected at seven concentrations from 3.125 to 200 uM, 30 uL/min, 25 C, HBS-EP running buffer; equilibrium responses fitted to a steady-state affinity model; both purified

Q: EAEYEHL [Myoki peptide] was tested. Which binding did it give?
A: binds
